Measured values from doi:10.1101/2021.03.23.436667.
These are yes or no findings as the source states them, for the method shown. In cells and extracts the contact can be indirect. Some binding calls cover weakened binding; strength is not graded here.

The chains behind the UniProt entries cited, without tags or fusion partners. Residues count along the entry.
UniProt P07478, residues 24-247: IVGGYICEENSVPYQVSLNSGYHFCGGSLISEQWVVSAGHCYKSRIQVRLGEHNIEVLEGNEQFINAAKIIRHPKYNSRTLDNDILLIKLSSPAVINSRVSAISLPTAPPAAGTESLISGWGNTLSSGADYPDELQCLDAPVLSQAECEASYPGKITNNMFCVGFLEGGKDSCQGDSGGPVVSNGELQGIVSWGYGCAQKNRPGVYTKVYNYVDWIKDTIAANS
UniProt Q07954, residues 20-4544: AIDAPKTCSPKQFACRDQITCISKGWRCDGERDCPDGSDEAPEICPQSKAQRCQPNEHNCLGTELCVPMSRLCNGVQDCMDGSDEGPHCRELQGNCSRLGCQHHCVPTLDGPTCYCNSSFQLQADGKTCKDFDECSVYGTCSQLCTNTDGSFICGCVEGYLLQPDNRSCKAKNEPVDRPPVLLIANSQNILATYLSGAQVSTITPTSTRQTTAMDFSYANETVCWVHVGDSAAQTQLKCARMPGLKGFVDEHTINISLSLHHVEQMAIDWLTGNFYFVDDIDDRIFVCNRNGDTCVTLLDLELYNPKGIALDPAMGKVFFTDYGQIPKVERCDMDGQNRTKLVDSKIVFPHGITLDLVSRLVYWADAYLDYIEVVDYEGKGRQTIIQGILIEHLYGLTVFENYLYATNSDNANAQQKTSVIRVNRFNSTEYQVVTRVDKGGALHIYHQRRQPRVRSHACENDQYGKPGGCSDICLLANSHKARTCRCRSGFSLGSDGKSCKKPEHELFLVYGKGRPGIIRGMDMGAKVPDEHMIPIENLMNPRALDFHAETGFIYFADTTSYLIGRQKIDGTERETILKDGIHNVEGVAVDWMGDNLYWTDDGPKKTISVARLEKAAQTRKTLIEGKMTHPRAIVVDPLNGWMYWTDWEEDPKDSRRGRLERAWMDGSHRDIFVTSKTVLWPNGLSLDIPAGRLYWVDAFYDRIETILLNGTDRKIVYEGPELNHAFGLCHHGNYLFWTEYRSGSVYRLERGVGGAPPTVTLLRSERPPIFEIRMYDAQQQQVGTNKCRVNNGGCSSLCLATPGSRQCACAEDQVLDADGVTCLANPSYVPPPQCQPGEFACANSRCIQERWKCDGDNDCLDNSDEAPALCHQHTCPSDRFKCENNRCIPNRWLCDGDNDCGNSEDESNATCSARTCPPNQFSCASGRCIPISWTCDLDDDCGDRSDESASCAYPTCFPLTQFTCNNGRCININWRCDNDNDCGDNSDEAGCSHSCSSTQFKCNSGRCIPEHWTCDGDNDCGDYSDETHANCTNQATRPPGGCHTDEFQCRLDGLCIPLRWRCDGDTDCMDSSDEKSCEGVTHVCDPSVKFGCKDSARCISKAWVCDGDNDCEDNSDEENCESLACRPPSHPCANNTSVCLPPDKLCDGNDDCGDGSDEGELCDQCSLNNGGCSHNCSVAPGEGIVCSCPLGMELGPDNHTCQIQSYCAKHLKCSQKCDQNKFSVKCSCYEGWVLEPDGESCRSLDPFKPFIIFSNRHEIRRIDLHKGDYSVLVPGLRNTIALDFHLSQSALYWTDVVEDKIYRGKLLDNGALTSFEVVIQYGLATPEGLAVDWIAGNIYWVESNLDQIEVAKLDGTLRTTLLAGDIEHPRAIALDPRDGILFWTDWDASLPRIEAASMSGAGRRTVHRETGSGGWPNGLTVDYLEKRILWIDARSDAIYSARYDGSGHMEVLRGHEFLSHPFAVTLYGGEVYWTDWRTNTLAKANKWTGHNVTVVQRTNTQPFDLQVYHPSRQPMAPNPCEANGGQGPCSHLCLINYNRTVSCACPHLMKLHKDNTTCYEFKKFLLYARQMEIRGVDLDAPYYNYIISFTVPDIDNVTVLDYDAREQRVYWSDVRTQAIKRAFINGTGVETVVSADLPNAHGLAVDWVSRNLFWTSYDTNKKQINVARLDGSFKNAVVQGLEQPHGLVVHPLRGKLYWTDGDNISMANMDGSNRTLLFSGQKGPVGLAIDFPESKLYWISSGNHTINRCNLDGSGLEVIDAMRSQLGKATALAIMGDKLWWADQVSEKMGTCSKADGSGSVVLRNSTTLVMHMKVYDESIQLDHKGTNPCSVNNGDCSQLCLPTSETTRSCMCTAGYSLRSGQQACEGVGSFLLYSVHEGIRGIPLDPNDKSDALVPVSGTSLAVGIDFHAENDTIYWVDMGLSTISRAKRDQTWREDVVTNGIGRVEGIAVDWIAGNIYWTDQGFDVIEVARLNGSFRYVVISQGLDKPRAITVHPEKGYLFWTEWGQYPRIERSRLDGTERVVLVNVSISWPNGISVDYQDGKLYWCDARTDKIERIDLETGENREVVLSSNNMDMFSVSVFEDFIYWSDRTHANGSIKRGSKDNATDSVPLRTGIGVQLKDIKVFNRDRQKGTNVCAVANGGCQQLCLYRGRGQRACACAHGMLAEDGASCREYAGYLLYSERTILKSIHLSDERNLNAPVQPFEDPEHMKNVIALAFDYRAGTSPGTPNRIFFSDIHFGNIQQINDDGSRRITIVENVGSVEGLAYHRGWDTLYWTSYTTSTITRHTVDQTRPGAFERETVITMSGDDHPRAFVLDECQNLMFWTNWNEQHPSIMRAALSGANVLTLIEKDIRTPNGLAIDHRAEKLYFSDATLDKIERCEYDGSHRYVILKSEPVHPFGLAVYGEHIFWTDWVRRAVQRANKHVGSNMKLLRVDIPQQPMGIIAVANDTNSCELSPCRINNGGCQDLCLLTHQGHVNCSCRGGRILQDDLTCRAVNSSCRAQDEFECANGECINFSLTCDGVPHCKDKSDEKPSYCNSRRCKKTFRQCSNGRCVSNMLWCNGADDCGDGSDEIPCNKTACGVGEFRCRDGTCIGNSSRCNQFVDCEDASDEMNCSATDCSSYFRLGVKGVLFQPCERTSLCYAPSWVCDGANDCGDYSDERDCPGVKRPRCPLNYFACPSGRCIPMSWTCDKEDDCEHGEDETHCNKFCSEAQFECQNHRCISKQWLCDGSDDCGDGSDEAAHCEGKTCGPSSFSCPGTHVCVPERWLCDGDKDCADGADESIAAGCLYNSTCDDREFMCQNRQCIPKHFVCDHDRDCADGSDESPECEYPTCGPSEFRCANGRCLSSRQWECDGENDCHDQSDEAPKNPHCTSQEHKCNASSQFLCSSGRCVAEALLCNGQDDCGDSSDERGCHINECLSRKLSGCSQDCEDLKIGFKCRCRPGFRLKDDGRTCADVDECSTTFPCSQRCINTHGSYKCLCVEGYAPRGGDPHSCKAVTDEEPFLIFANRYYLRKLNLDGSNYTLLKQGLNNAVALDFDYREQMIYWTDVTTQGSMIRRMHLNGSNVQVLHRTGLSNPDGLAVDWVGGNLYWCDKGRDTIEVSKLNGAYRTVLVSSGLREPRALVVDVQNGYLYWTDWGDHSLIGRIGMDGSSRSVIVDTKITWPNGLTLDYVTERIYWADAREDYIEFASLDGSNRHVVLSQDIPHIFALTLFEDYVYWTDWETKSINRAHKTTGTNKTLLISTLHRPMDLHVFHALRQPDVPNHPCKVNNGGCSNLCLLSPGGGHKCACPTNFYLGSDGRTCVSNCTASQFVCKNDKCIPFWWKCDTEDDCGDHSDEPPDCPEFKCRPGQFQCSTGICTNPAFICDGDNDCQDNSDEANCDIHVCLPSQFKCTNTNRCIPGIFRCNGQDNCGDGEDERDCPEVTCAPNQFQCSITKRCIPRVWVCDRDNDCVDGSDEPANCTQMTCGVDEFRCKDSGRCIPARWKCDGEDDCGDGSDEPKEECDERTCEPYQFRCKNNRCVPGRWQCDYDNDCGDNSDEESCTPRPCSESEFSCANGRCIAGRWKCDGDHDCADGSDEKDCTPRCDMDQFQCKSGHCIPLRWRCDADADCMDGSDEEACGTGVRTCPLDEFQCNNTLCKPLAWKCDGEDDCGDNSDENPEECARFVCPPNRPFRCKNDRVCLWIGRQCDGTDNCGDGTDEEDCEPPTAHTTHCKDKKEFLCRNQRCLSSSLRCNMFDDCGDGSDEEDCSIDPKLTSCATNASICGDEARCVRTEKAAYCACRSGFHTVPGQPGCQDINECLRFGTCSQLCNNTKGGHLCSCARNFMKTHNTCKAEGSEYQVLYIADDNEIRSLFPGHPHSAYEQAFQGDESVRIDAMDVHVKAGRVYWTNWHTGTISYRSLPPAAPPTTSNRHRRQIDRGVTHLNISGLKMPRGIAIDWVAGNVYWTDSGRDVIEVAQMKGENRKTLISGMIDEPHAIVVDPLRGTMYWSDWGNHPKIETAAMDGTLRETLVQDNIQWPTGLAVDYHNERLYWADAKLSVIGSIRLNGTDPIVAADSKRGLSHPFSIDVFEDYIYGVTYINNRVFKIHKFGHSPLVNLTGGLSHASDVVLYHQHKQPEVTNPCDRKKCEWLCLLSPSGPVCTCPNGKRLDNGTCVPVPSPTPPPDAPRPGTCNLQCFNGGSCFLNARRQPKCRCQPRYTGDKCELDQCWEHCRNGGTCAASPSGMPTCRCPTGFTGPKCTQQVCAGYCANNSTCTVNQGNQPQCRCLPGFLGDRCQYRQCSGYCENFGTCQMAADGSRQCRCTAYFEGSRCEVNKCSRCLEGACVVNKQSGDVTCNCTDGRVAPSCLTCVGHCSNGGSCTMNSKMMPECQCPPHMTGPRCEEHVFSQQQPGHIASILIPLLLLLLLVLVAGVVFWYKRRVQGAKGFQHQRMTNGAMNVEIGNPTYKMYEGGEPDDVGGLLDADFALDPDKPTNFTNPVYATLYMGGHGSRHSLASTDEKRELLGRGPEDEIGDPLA

Target: PRSS2 (wild type), secreted into conditioned medium of transfected 293T cells (human) (UniProt P07478)
Assay: co-IP

## low-density lipoprotein receptor-related protein 1 (LRP1), endogenous in WI-38 lung fibroblasts (from UniProt Q07954 20-4544)
  binding: binds
